In doi:10.1101/778779:
Residue numbers refer to the chain shown, from its start. Like-named read-outs stand apart in the source and are kept apart here. No constants are given. Whether binding was seen depends on the method and setting. Some results given as binding are weak or reduced against the parent protein; the word gives no strength. Where a sequence is shown, tags or fusion partners need not be part of it.

The chains behind the UniProt entries cited, without tags or fusion partners. Where a name states a change or a piece, a line headed by the entry shows the natural chain unless it says otherwise.
UniProt O96013: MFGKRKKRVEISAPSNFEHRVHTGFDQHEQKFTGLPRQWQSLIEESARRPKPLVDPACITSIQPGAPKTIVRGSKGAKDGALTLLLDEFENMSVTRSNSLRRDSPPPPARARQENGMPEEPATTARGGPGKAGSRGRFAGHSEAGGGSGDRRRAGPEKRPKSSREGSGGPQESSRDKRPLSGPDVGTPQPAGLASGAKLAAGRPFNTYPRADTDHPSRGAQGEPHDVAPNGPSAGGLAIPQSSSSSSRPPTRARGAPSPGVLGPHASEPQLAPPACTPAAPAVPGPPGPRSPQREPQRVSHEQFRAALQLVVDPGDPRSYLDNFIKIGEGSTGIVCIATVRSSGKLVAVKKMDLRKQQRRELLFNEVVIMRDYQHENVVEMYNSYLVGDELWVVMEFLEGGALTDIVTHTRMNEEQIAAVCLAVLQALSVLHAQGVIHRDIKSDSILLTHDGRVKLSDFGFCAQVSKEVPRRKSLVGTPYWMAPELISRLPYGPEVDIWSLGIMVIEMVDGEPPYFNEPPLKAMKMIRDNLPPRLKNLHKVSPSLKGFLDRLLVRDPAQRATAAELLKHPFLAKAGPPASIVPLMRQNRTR

T1: iBox-PAK4cat-DERL (UniProt Q96EL1)
T1 sequence: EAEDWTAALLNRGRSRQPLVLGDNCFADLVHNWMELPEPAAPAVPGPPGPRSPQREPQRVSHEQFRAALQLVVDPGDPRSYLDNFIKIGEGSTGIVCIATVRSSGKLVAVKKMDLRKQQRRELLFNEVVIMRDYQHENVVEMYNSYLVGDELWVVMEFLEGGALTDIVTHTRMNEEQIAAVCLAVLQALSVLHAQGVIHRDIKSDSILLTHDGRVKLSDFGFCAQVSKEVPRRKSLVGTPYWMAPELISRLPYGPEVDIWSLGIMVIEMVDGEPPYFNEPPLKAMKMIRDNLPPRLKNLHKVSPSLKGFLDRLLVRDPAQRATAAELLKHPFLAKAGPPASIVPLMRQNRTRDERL

T2: iBox-PAK4cat-DTAL (UniProt Q96EL1)
T2 sequence: T1 sequence with E354T, R355A

T3: iBox-PAK4cat-DTRA (UniProt Q96EL1)
T3 sequence: T1 sequence with E354T, L356A

T4: iBox-PAK4cat-AAAA (human) (UniProt Q96EL1+O96013)
T4 sequence: T1 sequence with D353A, E354A, R355A, L356A

T5: iBox-PAK4cat-DTRL (UniProt Q96EL1)
T5 sequence: T1 sequence with E354T

T6: iBox-PAK4cat-DARL (UniProt Q96EL1)
T6 sequence: T1 sequence with E354A

T7: iBox-PAK4cat-ATRL (UniProt Q96EL1)
T7 sequence: T1 sequence with D353A, E354T

B1: GFP-NHERF1PDZ2 (NHERF1 residues 150-270) (domain or fragment, UniProt O14745 150-270)
chain: LRPRLCTMKKGPSGYGFNLHSDKSKPGQFIRSVDPDSPAEASGLRAQDRIVEVNGVCMEGKQHGDVVSAIRAGGDETKLLVVDRETDEFFKKCRVIPSQEHLNGPLPVPFTNGEIQKENSR
B2: GFP-NHERF1PDZ1 (NHERF1 residues 11-120) (domain or fragment, UniProt O14745 11-120)
chain: LPRLCCLEKGPNGYGFHLHGEKGKLGQYIRLVEPGSPAEKAGLLAGDRLVEVNGENVEKETHQQVVSRIRAALNAVRLLVVDPETDEQLQKLGVQVREELLRAQEAPGQA

Legend:
Assay in all cases: iBox-PAK4cat in-cellulo crystal assay
iBox-PAK4cat-DERL [1] = target: T1, iBox-PAK4cat-DERL
iBox-PAK4cat-DTAL [2] = target: T2, iBox-PAK4cat-DTAL
iBox-PAK4cat-DTRA [3] = target: T3, iBox-PAK4cat-DTRA
[4] = target: T4, iBox-PAK4cat-AAAA (human)
iBox-PAK4cat-DTRL [5] = target: T5, iBox-PAK4cat-DTRL
iBox-PAK4cat-DARL [6] = target: T6, iBox-PAK4cat-DARL
iBox-PAK4cat-ATRL [7] = target: T7, iBox-PAK4cat-ATRL
iBox-PAK4cat-DERL [8] = target: T1, iBox-PAK4cat-DERL; remark: listed apart in the source
iBox-PAK4cat-DTAL [9] = target: T2, iBox-PAK4cat-DTAL; remark: listed apart in the source
iBox-PAK4cat-DTRA [10] = target: T3, iBox-PAK4cat-DTRA; remark: listed apart in the source
iBox-PAK4cat-DTRL [11] = target: T5, iBox-PAK4cat-DTRL; remark: listed apart in the source
iBox-PAK4cat-DARL [12] = target: T6, iBox-PAK4cat-DARL; remark: listed apart in the source
iBox-PAK4cat-ATRL [13] = target: T7, iBox-PAK4cat-ATRL; remark: listed apart in the source

| Binder | binding (iBox-PAK4cat-DERL [1]) | binding (iBox-PAK4cat-DTAL [2]) | binding (iBox-PAK4cat-DTRA [3]) | binding [4] | binding (iBox-PAK4cat-DTRL [5]) | binding (iBox-PAK4cat-DARL [6]) | binding (iBox-PAK4cat-ATRL [7]) | binding (iBox-PAK4cat-DERL [8]) | binding (iBox-PAK4cat-DTAL [9]) | binding (iBox-PAK4cat-DTRA [10]) | binding (iBox-PAK4cat-DTRL [11]) | binding (iBox-PAK4cat-DARL [12]) | binding (iBox-PAK4cat-ATRL [13]) |
| --- | --- | --- | --- | --- | --- | --- | --- | --- | --- | --- | --- | --- | --- |
| B1 | binds | binds | no binding | no binding | binds | binds | binds | binds | binds | no binding | binds | binds | binds |
| B2 | binds | binds | no binding | no binding | binds | binds | binds | binds | binds | no binding | binds | binds | binds |
